Results taken from publication PMC8997158.

Sequences of proteins named here, by UniProt entry; tags and fusion partners are left off. A change or cut given only in a name is not applied to a line headed by its entry.
UniProt Q13263: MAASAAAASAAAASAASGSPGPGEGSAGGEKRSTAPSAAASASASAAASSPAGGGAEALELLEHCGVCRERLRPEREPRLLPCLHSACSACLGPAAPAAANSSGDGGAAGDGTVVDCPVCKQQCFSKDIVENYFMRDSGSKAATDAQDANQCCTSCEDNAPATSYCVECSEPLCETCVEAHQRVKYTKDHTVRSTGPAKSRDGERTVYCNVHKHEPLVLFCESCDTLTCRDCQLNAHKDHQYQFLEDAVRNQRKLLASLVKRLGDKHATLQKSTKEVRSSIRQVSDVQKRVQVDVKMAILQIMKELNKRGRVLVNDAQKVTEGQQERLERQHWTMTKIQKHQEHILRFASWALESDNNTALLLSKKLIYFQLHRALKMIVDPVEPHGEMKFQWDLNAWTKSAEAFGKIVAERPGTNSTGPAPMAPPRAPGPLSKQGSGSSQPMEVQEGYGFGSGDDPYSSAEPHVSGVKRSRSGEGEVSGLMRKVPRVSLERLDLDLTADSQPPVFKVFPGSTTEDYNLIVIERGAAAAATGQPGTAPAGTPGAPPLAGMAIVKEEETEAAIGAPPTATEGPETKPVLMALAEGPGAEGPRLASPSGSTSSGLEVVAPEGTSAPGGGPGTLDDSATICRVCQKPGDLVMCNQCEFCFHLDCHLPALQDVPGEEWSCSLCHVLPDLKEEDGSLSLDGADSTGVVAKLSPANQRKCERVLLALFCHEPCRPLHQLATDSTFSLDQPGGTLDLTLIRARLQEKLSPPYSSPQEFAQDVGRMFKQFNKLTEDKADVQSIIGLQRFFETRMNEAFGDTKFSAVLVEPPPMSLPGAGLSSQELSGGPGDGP
UniProt Q9HAU4: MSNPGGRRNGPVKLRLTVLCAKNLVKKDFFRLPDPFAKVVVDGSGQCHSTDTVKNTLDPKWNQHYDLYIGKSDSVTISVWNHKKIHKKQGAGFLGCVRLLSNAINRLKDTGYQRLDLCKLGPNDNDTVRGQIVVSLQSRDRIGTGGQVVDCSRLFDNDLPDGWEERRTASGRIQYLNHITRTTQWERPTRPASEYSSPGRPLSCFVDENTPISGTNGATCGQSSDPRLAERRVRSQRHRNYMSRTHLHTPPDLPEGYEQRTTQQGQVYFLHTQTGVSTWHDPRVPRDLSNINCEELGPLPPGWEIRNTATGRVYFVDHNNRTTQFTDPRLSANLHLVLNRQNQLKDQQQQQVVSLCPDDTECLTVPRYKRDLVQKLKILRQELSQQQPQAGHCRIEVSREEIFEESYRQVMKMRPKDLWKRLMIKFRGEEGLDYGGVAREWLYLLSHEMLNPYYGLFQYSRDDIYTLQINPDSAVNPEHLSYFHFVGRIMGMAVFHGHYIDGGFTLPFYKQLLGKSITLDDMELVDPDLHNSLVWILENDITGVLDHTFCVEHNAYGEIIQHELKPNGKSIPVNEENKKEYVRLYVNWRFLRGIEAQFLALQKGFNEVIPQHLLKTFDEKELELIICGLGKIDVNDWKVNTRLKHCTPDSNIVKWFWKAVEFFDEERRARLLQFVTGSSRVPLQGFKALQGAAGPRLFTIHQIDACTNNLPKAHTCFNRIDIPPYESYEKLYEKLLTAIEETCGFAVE

Target: N-terminal FLAG-tagged KAP1 (FLAG-KAP1), expressed in HEK-293T cells (UniProt Q13263)
Assay: affinity purification with mass spectrometry; FLAG-KAP1 co-expressed with MYC-SMURF2 (WT or CG) in HEK-293T cells, immunoprecipitated with anti-FLAG resin, eluted with 8 M urea buffer, LC-MS/MS

| Substance | binding |
| --- | --- |
| MYC-SMURF2CG, catalytically-inactive SMURF2 (C716G), expressed in HEK-293T cells (from UniProt Q9HAU4 1-748) (enzyme) | binds |
| MYC-SMURF2 wild-type (SMURF2WT), expressed in HEK-293T cells (from UniProt Q9HAU4 1-748) (enzyme) | binds |

Results are given in words; binding and its absence hold for the method and conditions named. Binding seen in cells or lysates may run through a third protein. Here binding means that the protein was enriched with, or labelled near, the bait; the list need not be complete.
